This is an account of results in publication PMC12139101.

Negatives hold for the conditions tested. For part of these data: At least one verdict rests on a figure or table, not on a statement of the authors. For part of these data: Construct, isoform or probe ends are uncertain for at least one entry. For part of these data: Where cells or extracts were used, other partners may take part.

For one data set, the target named is POLR2C (human) (UniProt P19387). Briefly: ELISA. Conditions: up to 200 nM, 100 mM K+; ELISA: oligos folded in Tris-HCl pH 7.4, 100 mM KCl; ELISA buffer 100 mM KCl, 50 mM KH2PO4 pH 7.4, 3% BSA block, 1 h (room temperature stated for coating and blocking); recombinant protein; residues 1-275; protein details: His; label: biotin (printed at 5' end); folded or branched DNA.
In the case of “TGGGGGTGGAGGTGGGACAAGGGAAAGGGGTGA [HS-40_G4_aWT]”, the binding result was “no binding”.

With “CCAGAAGCGGGGGTGGGGCACTGACCCCGACAGGGGCCT [HS2_G4_WT (bWT)]”, the binding result is recorded as “no binding”.

The next data set has as its target SP1 (human (K562 cells)) (UniProt P08047). The data set is described as follows: pull-down, immunoblot. Conditions: Pull-down: 25 mM HEPES-KOH pH 7.4, 10.5 mM NaCl, 110 mM KCl, 1 mM MgCl2, 0.01 mM ZnCl2, 20% glycerol, 0.1% IGEPAL, 3% BSA, 1 mM DTT, salmon sperm DNA; protein in an extract; label: biotin; letters put together from the description. (In western blotting, separated proteins are transferred to a membrane and probed.)
Take “CCAGAAGCGGGGGTGGGGCACTGACCCCGACAGGGGCCT (double strand) [HS2 bWT duplex]”: the binding result is listed as “no binding”.

For “TGTGTGTGGATGTGTGACAAGTGAAATGTGTGA (double strand) [HS-40 aMut duplex]”, the binding result is “no binding”.

In the case of “CCATAATGCCAAGCTTGAGCACTGATTCCGACACTAGACCT (double strand) [HS2 bMut duplex]”, the binding result was “no binding”.

For “TGGGGGTGGAGGTGGGACAAGGGAAAGGGGTGA (double strand) [HS-40 aWT duplex]”, the binding result was “no binding”.
